Experimental data reported in patent US20090304686A1, “INTERFERING IN ACTIVATION OF AN IMMUNE CELL BY INFLUENCING INTERACTION OF LAIR AND COLLAGEN” (UNIVERSOTAIR MEDISCH CENTRUM UTRECHT, priority 2006, published 2009).
These are yes or no findings as the source states them, for the method shown. Binding calls can cover weak binding; strength is not graded here. Blank lines part the entries; values can stand above or below the binder they belong to.

Columns and labels:
[1] = biological target: collagen I (purified, Sigma; acid-soluble human collagen type I in BIAcore) (human); assay: cell spreading on immobilized collagen I, microscopy
[2] = biological target: collagen I (purified, Sigma; acid-soluble human collagen type I in BIAcore) (human); assay: blocking of adhesion of hLAIR-1 K562 cells to plate-bound collagen I by supernatant with wild-type LAIR-2
[3] = biological target: collagen I (purified, Sigma; acid-soluble human collagen type I in BIAcore) (human); assay: blocking assay: coated collagen I pre-incubated with concentrated supernatant, blocked partner hLAIR-1 on K562 cells
[4] = biological target: collagen I (purified, Sigma; acid-soluble human collagen type I in BIAcore) (human); assay: adhesion of transfected K562 cells to plate-bound collagen
[5] = biological target: collagen II (purified, Chemicon International); assay: as above
[6] = biological target: collagen I (purified, Sigma; acid-soluble human collagen type I in BIAcore) (human); assay: precipitation with insoluble collagen I fibrils from cell lysates, Western blot with anti-hLAIR-1 mAbs

binding [1]: binds
B1: mouse LAIR-1 (mLAIR-1a) expressed on K562 cells (receptor, UniProt Q8BG84 22-263, looked up)
chain: QEGSLPDITIFPNSSLMISQGTFVTVVCSYSDKHDLYNMVRLEKDGSTFMEKSTEPYKTEDEFEIGPVNETITGHYSCIYSKGITWSERSKTLELKVIKENVIQTPAPGPTSDTSWLKTYSIYIFTVVSVIFLLCLSALLFCFLRHRQKKQGLPNNKRQQQRPEERLNLATNGLEMTPDIVADDRLPEDRWTETWTPVAGDLQEVTYIQLDHHSLTQRAVGAVTSQSTDMAESSTYAAIIRH

binding [2]: binds
binding [3]: binds
B2: LAIR-2 (wild-type, secreted/soluble protein) (receptor, human, UniProt Q6ISS4-2 22-135, looked up)
chain: QEGALPRPSISAEPGTVISPGSHVTFMCRGPVGVQTFRLEREDRAKYKDSYNVFRLGPSESEARFHIDSVSEGNAGLYRCLYYKPPGWSEHSDFLELLVKGTVPGTEASGFDAP

binding [4]: binds
binding [5]: binds
binding [6]: binds
B3: human LAIR-1 (hLAIR-1a) expressed on cells (receptor, UniProt Q6GTX8 22-287, looked up)
chain: QEEDLPRPSISAEPGTVIPLGSHVTFVCRGPVGVQTFRLERDSRSTYNDTEDVSQASPSESEARFRIDSVREGNAGLYRCIYYKPPKWSEQSDYLELLVKESSGGPDSPDTEPGSSAGPTQRPSDNSHNEHAPASQGLKAEHLYILIGVSVVFLFCLLLLVLFCLHRQNQIKQGPPRSKDEEQKPQQRPDLAVDVLERTADKATVNGLPEKDRETDTSALAAGSSQEVTYAQLDHWALTQRTARAVSPQSTKPMAESITYAAVARH
